Data from PMC7819943, “Rice protein-binding microarrays: a tool to detect cis-acting elements near promoter regions in rice”.
This is one part of the list.

Sequences of proteins named here, by UniProt entry; tags and fusion partners are left off.
UniProt Q0JBA9, entry or part of it: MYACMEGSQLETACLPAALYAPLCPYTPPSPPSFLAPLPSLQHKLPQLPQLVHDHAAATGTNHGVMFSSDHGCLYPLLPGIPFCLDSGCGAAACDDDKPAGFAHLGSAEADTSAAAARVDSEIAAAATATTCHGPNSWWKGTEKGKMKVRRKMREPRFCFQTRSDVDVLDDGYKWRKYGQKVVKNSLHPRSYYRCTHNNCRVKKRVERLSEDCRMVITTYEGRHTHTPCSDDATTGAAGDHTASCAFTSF

Each sequence was assayed against OsWRKY34 (Oryza sativa, UniProt Q0JBA9 1-250) (assay: protein-binding microarray (RPBM); PBS, 2% BSA, 51.3 ng/ul salmon testes DNA, 50 uM zinc acetate, 200 nM TF, 25 C, 1 h; high values mean tight binding). Details: protein: recombinant; tags: N-terminal polyhistidine and DsRed monomer fusion (pET32a); label: CyDye5-dUTP incorporated in the synthesized complementary strand; 3' TTTTT single-stranded linker to array surface; dsDNA, one strand shown.
In short: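 Binding signal here means per-feature fluorescence intensity in arbitrary units. The values were read on an Axon 4000B scanner after a custom Agilent array, double-stranded by primer extension with Cy5-dUTP, was incubated with 200 nM protein at 25 °C for 1 h in PBS with 2% BSA, salmon testes DNA and 50 µM zinc acetate, then washed. The proteins were transcription factors with an N-terminal polyhistidine tag and DsRed, expressed in E. coli BL21-CodonPlus and purified on Ni–NTA.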

Point of comparison: “GCGCTTCGATTTGGTTTGGTTTGATTCGGTTTGCGAGATGCGGAGTCACCTAGTGCAG”, binding signal 8780 fluorescence intensity (a.u.). Against it:
- ATTCAATCTCATTTGCCTGATTACAGTTAGATACTGACATCGGAGTCACCTAGTGCAG — lower, 8090 fluorescence intensity (a.u.)
- GTGTTGCATATACTTGTTCCCACACAACTCATGTCTATCACGGAGTCACCTAGTGCAG — lower, 8550 fluorescence intensity (a.u.)
- CTCTGTTTTACAATGTAAGTCATTCTAGCATTTTCCACATCGGAGTCACCTAGTGCAG — higher, 9780 fluorescence intensity (a.u.)
- CCCTCCGTTTCAAAATGTTTGATACCGTTGACTTTTTAGCCGGAGTCACCTAGTGCAG — higher, 21200 fluorescence intensity (a.u.)
- AACCTTTTCGCGCGCTTTTGACATCATCCTTTTGCTTGGCCGGAGTCACCTAGTGCAG — higher, 12200 fluorescence intensity (a.u.)
- TTAACCCCGTCACGTCACCTCTCTCTCTCTCTACCGTCTCCGGAGTCACCTAGTGCAG — higher, 10400 fluorescence intensity (a.u.)
- GCCTCCTAACCACGTCGGTTTCATTGCCCTGTCGCTGACCCGGAGTCACCTAGTGCAG — higher, 10700 fluorescence intensity (a.u.)
- GGTCACACCGTTCCAAGCCACTCTCACACGCACGCGCGTCCGGAGTCACCTAGTGCAG — higher, 9090 fluorescence intensity (a.u.)
- GCATTCTTCCCATCGTTTCCCAACTTCATATGTAGTATATCGGAGTCACCTAGTGCAG — lower, 8270 fluorescence intensity (a.u.)
- TCTCCAGCCGCTCACCGCTGTCTCTCTCCCTCCTCACAACCGGAGTCACCTAGTGCAG — lower, 8390 fluorescence intensity (a.u.)
- TCCACCCCAGCCGTCGACGCCGCCGTCACCCACCCGCAACCGGAGTCACCTAGTGCAG — higher, 9110 fluorescence intensity (a.u.)
- AACCCTATCGCCGCCCCATTCGCCTGCTCGAGACCACCAACGGAGTCACCTAGTGCAG — higher, 10900 fluorescence intensity (a.u.)
- AAATAAAGCAATGGAAGTAAAGTCAACAGGGAGGGTAAAACGGAGTCACCTAGTGCAG — lower, 8290 fluorescence intensity (a.u.)
- CCTTTGCTCCTGCTGCTGCTTTGTTGCTTGCTTCCCTACACGGAGTCACCTAGTGCAG — higher, 11400 fluorescence intensity (a.u.)
- GATTACCCTGTTGCATTGTTATACTAATTATACGGTCACACGGAGTCACCTAGTGCAG — lower, 8370 fluorescence intensity (a.u.)
- TATGGGTCCAAGAGTTTAGGTGTAGGGTCTTCTCTCTTTTCGGAGTCACCTAGTGCAG — higher, 9320 fluorescence intensity (a.u.)
- AGTTCAGGGACCTTTGGTGTACTTTTTCCTTATTGTTAATCGGAGTCACCTAGTGCAG — higher, 9130 fluorescence intensity (a.u.)
- GATCTCCTCGACCTGCTATGCTCATCCCGTCGAAAAGTTCCGGAGTCACCTAGTGCAG — higher, 9010 fluorescence intensity (a.u.)
- ACTACTACTCCTCCTATATCACTGGTTCTTTCTTGCAAAGCGGAGTCACCTAGTGCAG — higher, 8900 fluorescence intensity (a.u.)
- AATGACACACAACAAGTTACTATTATCACTGTAGCACGAACGGAGTCACCTAGTGCAG — higher, 10200 fluorescence intensity (a.u.)
- ATGGAGTATATGTGTTTTGTAGATTGCAACTTAGAAATGGCGGAGTCACCTAGTGCAG — lower, 8680 fluorescence intensity (a.u.)
- GTCATCCTGTTTCACTGCTAGCTCTCCCTAAATTTTGAAACGGAGTCACCTAGTGCAG — lower, 8490 fluorescence intensity (a.u.)
- TAATCGATCTGCTCCTGTACTCATGTGGTAGGTTATTCTACGGAGTCACCTAGTGCAG — lower, 8710 fluorescence intensity (a.u.)
- AGTTGCAGTGTTTCCCTATCAAGTATCAATCGCGAGCTGCCGGAGTCACCTAGTGCAG — higher, 8810 fluorescence intensity (a.u.)
- ACCACGATGTGTCACCCCACCCCACCACCGCCCGCTGCTCCGGAGTCACCTAGTGCAG — higher, 9690 fluorescence intensity (a.u.)
- CGGTTATCTTTTGCCATAATTACTTTTTGTAAAACCAACTCGGAGTCACCTAGTGCAG — higher, 9840 fluorescence intensity (a.u.)
- TTCTTCCCACCTTCCTATTTACACATTCAATTTTATTCATCGGAGTCACCTAGTGCAG — lower, 8250 fluorescence intensity (a.u.)
- ATCCAAGTTTATAATACATCATTTTCTACATTATTTCATCCGGAGTCACCTAGTGCAG — higher, 9060 fluorescence intensity (a.u.)
- ACCATATGTTTTTTCATCTAAGGCCTTGTTTAGATTTAAACGGAGTCACCTAGTGCAG — higher, 9290 fluorescence intensity (a.u.)
- CTGGATTGTCCCCAAATCCCTTCGTACACTTTCTCCAGCCCGGAGTCACCTAGTGCAG — higher, 9330 fluorescence intensity (a.u.)
- AAAATTATTTTATTTCCTTCTCACTAGGTGTTGTTCTTTTCGGAGTCACCTAGTGCAG — lower, 8680 fluorescence intensity (a.u.)
- CCGTGATCCTGCTGCCGTCGTCCACCGCCACGCTCTCTCCCGGAGTCACCTAGTGCAG — lower, 8150 fluorescence intensity (a.u.)
- CTCCGTCTTGTGTGTTTGTTCGTTTGGACGGTTAGTGCGTCGGAGTCACCTAGTGCAG — higher, 10300 fluorescence intensity (a.u.)
- TTTGTTATTCCCACGATGTTATTTGTTCAGTTCTTGCTATCGGAGTCACCTAGTGCAG — higher, 8900 fluorescence intensity (a.u.)
- ACCTCCATGTTGGTAATGTGACATGTCCTTCTACATATGCCGGAGTCACCTAGTGCAG — higher, 11500 fluorescence intensity (a.u.)
- ATTGTGGTTCAGACTTAGAAGACCTTTTACCTTTATTGTTCGGAGTCACCTAGTGCAG — higher, 9600 fluorescence intensity (a.u.)
- ACCCTCACTCCCACTCACAAACACACACAATTTAGCTTAGCGGAGTCACCTAGTGCAG — lower, 8580 fluorescence intensity (a.u.)
- TGTCACATTCGTTTTACTCTCTCCGGACACATCTCTTTCTCGGAGTCACCTAGTGCAG — higher, 14500 fluorescence intensity (a.u.)
- CCGTCTCCTCGCTTTCCGCCGGCGCCGATCTCCATCCTACCGGAGTCACCTAGTGCAG — higher, 10900 fluorescence intensity (a.u.)
- GTAGCCGATGTTTGTGTCTTGAAGCTTCGTACTTCCACTCCGGAGTCACCTAGTGCAG — lower, 8030 fluorescence intensity (a.u.)
- CTCTTTTCCGTTTTCTTTTCAGGGCGCCGCCTCCTCTTCTCGGAGTCACCTAGTGCAG — higher, 8930 fluorescence intensity (a.u.)
